Data as given in PubChem BioAssay AID1259308 (NCATS, 2017).

- Aim: 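Genes whose loss raises luciferase production in HEK293 cells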 (primary screen)
- System: human HEK293 embryonic kidney cells stably expressing firefly luciferase (HEK-CMV-Luc2-Hygro)
- Knock-down reagent: single siRNA against human genes, 0.8 pmol siRNA per well
- Time to read-out: 72 h
- Read-out: 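Reporter luminescence and viable-cell signal on separate replicate plates, given as percent of non-targeting control and median/MAD z-scores, plus per-cell luciferase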
- Reading the numbers: total luciferase, z-score and total luciferase, % of control: higher = more reporter protein produced; luciferase per cell, z-score: higher = more reporter output per viable cell; viable cells, % of control: higher = more viable cells
- Active means: 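Active when the median/MAD z-score for overall luciferase is greater than 3; a gene was taken forward for validation with new siRNAs if at least two of its three siRNAs passed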
- Meaning of the calls: active = raised luciferase; inactive = no rise
In all, the deposit lists about 59,000 reagents; this is a part drawn at random. In the full data, about 1,510 (2.6%) are marked active. 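Calls use total luciferase alone and ignore viability, so some active siRNAs may act by altering cell number.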

| target gene | PubChem SID | total luciferase, z-score | total luciferase, % of control | luciferase per cell, z-score | viable cells, % of control | Call |
| --- | --- | --- | --- | --- | --- | --- |
| ZNF677 | SID160764656 | -0.121 | 79.5 | -0.256 | 95 | inactive |
| ZNF677 | SID160764657 | -0.889 | 64.2 | -0.767 | 87.8 | inactive |
| ZNF677 | SID160764658 | -0.379 | 74.3 | -0.216 | 87.9 | inactive |
| UBE2E1 | SID160769511 | -0.778 | 66.4 | -0.382 | 82.1 | inactive |
| UBE2E1 | SID160769605 | -0.413 | 73.7 | -0.739 | 100 | inactive |
| UBE2E1 | SID160769699 | -1.47 | 52.6 | -2.11 | 102 | inactive |
| LRRC8A | SID160744992 | -1.16 | 58.8 | -1.07 | 87.1 | inactive |
| LRRC8A | SID160744993 | -0.909 | 63.8 | -0.838 | 88.9 | inactive |
| LRRC8A | SID160744994 | 0.0636 | 83.2 | 0.34 | 85 | inactive |
| PYGL | SID160715503 | 0.0369 | 82.6 | 0.52 | 80.5 | inactive |
| PYGL | SID160715504 | 2.45 | 131 | 1.65 | 94.4 | inactive |
| PYGL | SID160715505 | 0.509 | 92 | 0.371 | 93.3 | inactive |
| FBXO46 | SID160736206 | -2.02 | 41.7 | -1.06 | 61.6 | inactive |
| FBXO46 | SID160736207 | 1.21 | 106 | 1.4 | 82 | inactive |
| FBXO46 | SID160736209 | -0.53 | 71.3 | -1.14 | 108 | inactive |
| RRM1 | SID160716228 | -0.52 | 71.5 | 1.34 | 56.1 | inactive |
| RRM1 | SID160716229 | 0.147 | 84.8 | 2.3 | 51.7 | inactive |
| RRM1 | SID160716230 | -1.42 | 53.6 | 1.81 | 37.2 | inactive |
| XPR1 | SID160721736 | 1.05 | 103 | 1.11 | 85.8 | inactive |
| XPR1 | SID160721737 | 3.92 | 160 | 2.12 | 102 | active |
| XPR1 | SID160721738 | -1.35 | 55 | -2.16 | 108 | inactive |
| LRCH4 | SID160733356 | -1.9 | 44.2 | -3.03 | 110 | inactive |
| LRCH4 | SID160776717 | 1.75 | 117 | 2.14 | 74.2 | inactive |
| LRCH4 | SID160776718 | 0.199 | 85.8 | 0.883 | 76 | inactive |
| EID1 | SID160736825 | 0.122 | 84.3 | -0.0967 | 96.7 | inactive |
| EID1 | SID160736826 | -0.269 | 76.5 | -0.773 | 105 | inactive |
| EID1 | SID160736827 | -1.21 | 57.8 | -1.24 | 89.6 | inactive |
| FAM180B | SID160766884 | -2.02 | 41.8 | -1.97 | 78.4 | inactive |
| FAM180B | SID160766885 | 0.0902 | 83.7 | 1.59 | 61.5 | inactive |
| FAM180B | SID160766886 | 1.75 | 117 | 0.52 | 114 | inactive |
| CAVIN3 | SID160724717 | 0.208 | 86 | -0.255 | 103 | inactive |
| CAVIN3 | SID160724718 | 1.36 | 109 | 1.11 | 90.9 | inactive |
| CAVIN3 | SID160754689 | 0.254 | 86.9 | 0.489 | 85.4 | inactive |
| TTK | SID160715875 | 1.97 | 121 | 3.89 | 48.6 | inactive |
| TTK | SID160716071 | 0.128 | 84.4 | 0.04 | 93.4 | inactive |
| TTK | SID160731859 | 0.785 | 97.5 | 0.598 | 93.1 | inactive |
| SLC47A2 | SID160758416 | -1.44 | 53.3 | -1.48 | 88 | inactive |
| SLC47A2 | SID160758418 | -0.00185 | 81.8 | 0.294 | 84.7 | inactive |
| SLC47A2 | SID160758419 | 1.25 | 107 | 0.774 | 97.4 | inactive |
| RPS6KB2 | SID160716160 | -0.124 | 79.4 | -0.0127 | 89.1 | inactive |
| RPS6KB2 | SID160716161 | 0.737 | 96.6 | 0.00123 | 108 | inactive |
| RPS6KB2 | SID160716162 | -0.673 | 68.5 | -1.36 | 110 | inactive |
| UFSP1 | SID160733355 | 3.59 | 153 | 2.01 | 101 | active |
| UFSP1 | SID160767468 | 0.677 | 95.3 | 0.592 | 91.2 | inactive |
| UFSP1 | SID160767470 | -0.173 | 78.4 | -0.499 | 100 | inactive |
| KIR3DP1 | SID160774546 | 0.105 | 84 | 1.08 | 70.6 | inactive |
| KIR3DP1 | SID160774547 | -0.465 | 72.6 | -0.652 | 96.4 | inactive |
| KIR3DP1 | SID160774548 | 0.136 | 84.6 | 1.68 | 60.8 | inactive |
| CIP2A | SID160746497 | 0.663 | 95.1 | 0.0463 | 105 | inactive |
| CIP2A | SID160746498 | -0.774 | 66.5 | -0.842 | 92.7 | inactive |
| CIP2A | SID160746499 | -1.1 | 60 | -1.67 | 104 | inactive |
| MUS81 | SID160750189 | 1.13 | 104 | 0.933 | 91.3 | inactive |
| MUS81 | SID160750190 | 6.54 | 212 | 4.33 | 75.7 | active |
| MUS81 | SID160750192 | 0.916 | 100 | 1.08 | 84.1 | inactive |
| SSBP1 | SID160717375 | 0.121 | 84.3 | 0.0487 | 93 | inactive |
| SSBP1 | SID160717376 | 0.221 | 86.3 | 0.46 | 85.4 | inactive |
| SSBP1 | SID160731795 | -0.981 | 62.4 | -1.66 | 108 | inactive |
| NDUFS4 | SID160777905 | -0.76 | 66.8 | -0.174 | 78.1 | inactive |
| NDUFS4 | SID160777906 | -0.937 | 63.3 | -0.847 | 88.3 | inactive |
| NDUFS4 | SID160777907 | -0.0522 | 80.8 | 0.439 | 80.5 | inactive |
| NOVA1 | SID160731300 | 0.17 | 85.3 | -0.0505 | 96.6 | inactive |
| NOVA1 | SID160778166 | 0.0606 | 83.1 | 2.26 | 51.2 | inactive |
| NOVA1 | SID160778168 | 0.00491 | 82 | 0.282 | 85.1 | inactive |
| COXFA4 | SID160731272 | 0.0615 | 83.1 | -0.305 | 101 | inactive |
| COXFA4 | SID160777839 | -0.877 | 64.4 | -1.18 | 98.2 | inactive |
| COXFA4 | SID160777840 | 0.49 | 91.6 | 0.0681 | 101 | inactive |
| TXN2 | SID160737061 | -0.218 | 77.6 | -0.00438 | 86.8 | inactive |
| TXN2 | SID160737062 | -2.25 | 37 | -0.855 | 51.8 | inactive |
| TXN2 | SID160737063 | -1.73 | 47.4 | -0.799 | 65.4 | inactive |
| CENPS | SID160765526 | 0.169 | 85.2 | 1.01 | 73.1 | inactive |
| CENPS | SID160765527 | -0.87 | 64.6 | -1.59 | 110 | inactive |
| CENPS | SID160765528 | -1.28 | 56.5 | 0.0591 | 62.2 | inactive |
| CYB5R4 | SID160740227 | -1.14 | 59.2 | -1.27 | 92.4 | inactive |
| CYB5R4 | SID160740228 | 0.959 | 101 | 0.359 | 103 | inactive |
| CYB5R4 | SID160740229 | -1.17 | 58.7 | -0.634 | 77.5 | inactive |
